# Measurements published in PubChem BioAssay AID588590 (National Center for Advancing Translational Sciences (NCATS), 2011).
# Protein sequences, listed by entry. Tags and fused reporters are not part of them. Lines headed by an entry give the natural chain unless they say otherwise; changes in a name come on top.
# UniProt Q9UNA4: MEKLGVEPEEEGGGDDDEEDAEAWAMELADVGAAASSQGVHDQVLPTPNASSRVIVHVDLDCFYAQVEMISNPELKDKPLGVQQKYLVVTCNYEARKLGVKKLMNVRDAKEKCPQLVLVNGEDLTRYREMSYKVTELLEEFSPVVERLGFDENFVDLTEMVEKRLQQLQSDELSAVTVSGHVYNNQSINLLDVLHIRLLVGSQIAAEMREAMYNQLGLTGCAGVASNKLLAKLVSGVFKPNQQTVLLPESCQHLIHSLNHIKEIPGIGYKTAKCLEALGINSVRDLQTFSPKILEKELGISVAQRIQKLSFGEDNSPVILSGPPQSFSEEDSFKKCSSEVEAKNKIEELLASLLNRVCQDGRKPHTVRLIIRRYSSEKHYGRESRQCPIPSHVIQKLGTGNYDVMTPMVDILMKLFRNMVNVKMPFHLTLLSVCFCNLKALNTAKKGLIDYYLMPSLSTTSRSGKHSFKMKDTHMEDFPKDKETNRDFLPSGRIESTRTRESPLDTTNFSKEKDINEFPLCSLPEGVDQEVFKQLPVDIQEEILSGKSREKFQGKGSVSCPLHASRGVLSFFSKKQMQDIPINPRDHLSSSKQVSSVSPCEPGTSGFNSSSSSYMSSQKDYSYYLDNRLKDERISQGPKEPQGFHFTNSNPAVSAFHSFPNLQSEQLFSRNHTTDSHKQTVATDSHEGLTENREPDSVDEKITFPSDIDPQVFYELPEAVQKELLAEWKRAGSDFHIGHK
# Hit rate of the full screen: of about 390,000 compounds, about 4,000 (1%) were called active. Inconclusive means that the source gave no clear call. Such entries were picked first, then a sample of the others. The call rests on the fitted dose curve; in most records, active means well fitted inhibition curve with a large enough effect; inconclusive means small, poorly fitted or top-dose-only effect, or another doubt; inactive means no such curve, though single readings can be large or run the other way. A potency beside an inconclusive call is a rough fit, not a confirmed value.
# Molecular target: DNA polymerase iota (Homo sapiens) (UniProt Q9UNA4)
# Test: qHTS for Inhibitors of Polymerase Iota
# Settings: Pol iota fluorescent replication assay, 10 min; series mostly up to 115 µM; activity, negative = inhibition: at the top concentration
# How it was run: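 Fluorescent replication assay read twice, at 0 min and 10 min after adding 50 nM (final) substrate. Enzyme (10 nM) and compounds were first incubated 15 min at room temperature; enzyme-free buffer wells were negative controls.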
# Potency means the concentration at half of the fitted maximal effect.
SMILES,Potency,"activity, negative = inhibition"
CCOc1ccc(NC(=O)C2CC(=O)N(c3cc(C)cc(C)c3)C2)cc1 (stereo not given),"inconclusive: 6.31 µM [inhibitor, partial curve, poor fit]",–
CCOCCCNC(=O)c1ccc2c(=O)n(CCc3ccc(OC)c(OC)c3)c(=O)[nH]c2c1,–,inactive: 14.2%
COc1ccc(CNC(=O)c2nn(C)c3c2CS(=O)(=O)c2ccccc2-3)cc1,"inconclusive: 17.8 µM [inhibitor, full curve, poor fit]",–
O=C(Cc1ccccc1)N1CCC2(CC1)NCCc1[nH]cnc12,"inconclusive: 39.8 µM [inhibitor, single point]",–
Cc1ccc(Nc2ncc(C(=O)Nc3ccc(F)cc3F)c3ccccc23)cc1Cl,"inconclusive: 100 µM [inhibitor, single point]",–
CC(=O)c1ccc(NC(=O)CSc2ccc3nnc(CCNS(=O)(=O)c4ccc(C)cc4)n3n2)cc1,"inconclusive: 89.1 µM [inhibitor, single point]",–
CC(=O)c1ccc(S(=O)(=O)N(C)CC(=O)Nc2cc(C)on2)cc1,"inconclusive: 28.2 µM [inhibitor, full curve]",–
c1ccc(SCc2cc(-c3ccccc3)no2)cc1,–,inactive: 25.2%
Cc1ccn2c(=O)nc(SCC(=O)c3ccccc3)nc2c1,active: 44.7 µM,–
COc1ccc(C(=O)/C=C2/C(=O)Nc3ccccc32)cc1OC,"inconclusive: 5.01 µM [inhibitor, full curve, poor fit]",–
CC(C)CN1CCN(Cc2cccc3cccnc23)CC1CCO (stereo not given),–,inactive: 0.874%
CCC(=O)N1CCN(c2ccccc2NC(=S)NC(=O)c2ccco2)CC1,"inconclusive: 7.94 µM [inhibitor, partial curve, poor fit]",–
COc1ccc(CCNC(=O)CCS(=O)(=O)c2cc3c(cc2Cl)NC(=O)CO3)cc1OC,–,inactive: 22.1%
CSc1nc(C)c(CCOC(=O)c2cccc(C)c2)c(=O)[nH]1,"inconclusive: 20 µM [inhibitor, single point]",–
CCOc1ccc2c(c1)[N+](C)(C)C(C)(C)C=C2C,"inconclusive: 100 µM [inhibitor, single point]",–
COc1cc(C(=O)OCC(=O)NCc2ccco2)cc(OC)c1OC,"inconclusive: 50.1 µM [inhibitor, partial curve]",–
Oc1ccc(CNc2ccccc2)c2cccnc12,–,inactive: -1.02%
COc1cc(CNc2ccc(N3CCCC3)cc2)cc(Cl)c1OC,–,inactive: 28.8%
CC(C)C(=O)Nc1nnc(Sc2ccc(N(C)C)cc2)s1,"inconclusive: 14.1 µM [inhibitor, partial curve]",–
COC(=O)Cn1c(=O)c2c(n(Cc3ccccc3)c1=O)N/C(=C/c1ccc(Br)cc1)C2=O,"inconclusive: 22.4 µM [inhibitor, partial curve, poor fit]",–
CN1CCc2c(sc3nc(NN)n(-c4ccc(Cl)cc4)c(=O)c23)C1,–,inactive: -7.93%
COc1ccccc1/C=C/C=N/NC(=O)Cc1cccn1C,active: 50.1 µM,–

SMILES,Potency,"activity, negative = inhibition"
O=C(c1cc2ncc(Br)cn2n1)N1CCN(C(=O)c2ccco2)CC1,"inconclusive: 22.4 µM [inhibitor, partial curve, poor fit]",–
COc1ccc(NC2CC(=O)N(c3ccc(C(=O)O)cc3)C2=O)cc1 (stereo not given),"inconclusive: 89.1 µM [inhibitor, single point]",–
CCOC(=O)C1=C(C)NC2=C(C(=O)CCC2)C1c1ccc(O)c(OCC)c1 (stereo not given),–,inactive: 11.7%
COc1ccc(NC(=O)N2c3ccc(OC)cc3C(C)=CC2(C)C)cc1,"inconclusive: 31.6 µM [inhibitor, single point]",–
Nc1cccnc1Sc1cccc(Cl)c1,"inconclusive: 3.16 µM [inhibitor, full curve, poor fit]",–
COc1ccc(OC)c(NC(=O)Nc2ccc(Cl)cc2)c1,"inconclusive: 89.1 µM [inhibitor, partial curve, poor fit]",–
COc1ccc(-c2cc(C)no2)cc1S(=O)(=O)N1CCN(C(=O)c2ccco2)CC1,"inconclusive: 44.7 µM [inhibitor, partial curve, poor fit]",–
CC(=O)NC(=S)Nc1ccc(NC(=S)NC(=O)/C=C/c2ccco2)cc1,active: 31.6 µM,–
CC1CCc2nc(NC(=O)CN3CCN(Cc4ccc5c(c4)OCO5)CC3)sc2C1 (stereo not given),"inconclusive: 28.2 µM [inhibitor, partial curve]",–
CCCc1nc2sc3ccccc3c(=O)c2c(=O)n1Cc1ccccc1,–,inactive: 28.9%
Cc1oc(C)c2c(=O)cc(-c3ccc4c(c3)OCO4)cc(OC(=O)c3cccc(Cl)c3)c12,"inconclusive: 35.5 µM [inhibitor, partial curve, poor fit]",–
C[C@H](NC(=O)c1nc[nH]c1C(=O)N1CCNCC1)C(=O)OC(C)(C)C,"inconclusive: 22.4 µM [inhibitor, full curve, poor fit]",–
COC(=O)C1=C(O)/C(=C\c2ccc(CNS(=O)(=O)c3ccc(Cl)cc3)o2)N=C1C,"inconclusive: 17.8 µM [inhibitor, full curve, poor fit]",–
COc1ccc(/C=C/C(=O)O)cc1S(=O)(=O)NC1CCS(=O)(=O)C1 (stereo not given),"inconclusive: 39.8 µM [inhibitor, single point]",–
COc1ccc(-c2cc3nc(C)c(CCC(=O)N4CCN(c5ccccn5)CC4)c(C)n3n2)c(OC)c1,"inconclusive: 89.1 µM [inhibitor, single point]",–
COC(=O)c1ccc(Cl)cc1NC(=O)N(Cc1ccc(OC)cc1)C1CCN(C(C)=O)CC1,–,inactive: 13.9%
CC(C)(C)n1nc2c(c1NC(=O)c1ccc(S(=O)(=O)N3CCCC3)cc1)CSC2,"inconclusive: 56.2 µM [inhibitor, single point]",–
CCCCOC(=O)c1cccc(NC(=O)/C=C/c2ccccc2Cl)c1,–,inactive: -25%
O=C(O)c1ccc(NC2=C(N3CCOCC3)C(=O)c3ccccc3C2=O)cc1,"inconclusive: 22.4 µM [inhibitor, full curve, poor fit]",–
C=CCOCCN(CCOCC=C)C1=NS(=O)(=O)c2ccccc21,"inconclusive: 100 µM [inhibitor, single point]",–
Cc1ccc(C(=O)C=Cc2cccc(C)c2)cc1,"inconclusive: 17.8 µM [inhibitor, full curve]",–
O=C(CSc1ccccc1Cl)c1ccco1,"inconclusive: 25.1 µM [inhibitor, partial curve]",–

# Arranged by formula weight (largest number first): some entries from above.
SMILES,Potency,"activity, negative = inhibition"
CC1CCc2nc(NC(=O)CN3CCN(Cc4ccc5c(c4)OCO5)CC3)sc2C1 (stereo not given),"inconclusive: 28.2 µM [inhibitor, partial curve]",–
O=C(c1cc2ncc(Br)cn2n1)N1CCN(C(=O)c2ccco2)CC1,"inconclusive: 22.4 µM [inhibitor, partial curve, poor fit]",–
CCCc1nc2sc3ccccc3c(=O)c2c(=O)n1Cc1ccccc1,–,inactive: 28.9%
Nc1cccnc1Sc1cccc(Cl)c1,"inconclusive: 3.16 µM [inhibitor, full curve, poor fit]",–

# Remaining list, next part

SMILES,Potency,"activity, negative = inhibition"
CCCCCCc1cc2cc(-c3nnc(-c4ccccc4O)o3)c(=O)oc2cc1O,"inconclusive: 3.55 µM [inhibitor, full curve, poor fit]",–
CC(C)OCCCn1c(-c2ccco2)nc2nc3ccccc3nc21,"inconclusive: 39.8 µM [inhibitor, partial curve, poor fit]",–
COc1cc(OC)cc(C(=O)Nc2cc(-c3nc4cccnc4s3)ccc2C)c1,–,inactive: 14.7%
Cc1c(C(=O)OC2CCCCCC2)[nH]c2c1C(=O)CC(c1ccc(N(C)C)cc1)C2 (stereo not given),"inconclusive: 14.1 µM [inhibitor, partial curve, poor fit]",–
CC1Cc2ccccc2N1C(=O)CSc1nnc(NC(=O)Cc2cccs2)s1 (stereo not given),"inconclusive: 12.6 µM [inhibitor, full curve, poor fit]",–
COc1ccc(S(=O)(=O)Nc2ccc(O)c3ccccc23)cc1,active: 20 µM,–
Cc1cc(C)c(NC(=O)C(=O)NCC(c2cccnc2)N2CCN(Cc3ccccc3)CC2)c(C)c1 (stereo not given),–,inactive: -6.05%
O=C(Nc1ccc2nc3n(c(=O)c2c1)CCCCC3)c1c(F)ccc([N+](=O)[O-])c1F,"inconclusive: 14.1 µM [inhibitor, full curve, poor fit]",–
O=c1c2cc(Cl)ccc2[nH]c(=S)n1Cc1ccco1,"inconclusive: 17.8 µM [inhibitor, full curve, poor fit]",–
COc1ccc(C)cc1NC(=O)Nc1ccccc1OCc1cc(=O)n2ccccc2n1,"inconclusive: 100 µM [inhibitor, partial curve, poor fit]",–
COc1cccc(NC(=O)CSC2=Nc3ccccc3C3=NC(CC(=O)NCc4ccc5c(c4)OCO5)C(=O)N23)c1 (stereo not given),"inconclusive: 89.1 µM [inhibitor, single point]",–
Oc1cc(-c2cccnc2)cc2cccnc12,"inconclusive: 15.8 µM [inhibitor, partial curve]",–
COCCn1c(-c2ccc(OC)cc2)nc2oc3cc(OC)ccc3c(=O)c2c1=O,"inconclusive: 89.1 µM [inhibitor, single point]",–
COc1ccc(C2C(=O)N(C3CCC(C)CC3)CC(=O)N2C2CCCC2)cc1OC (stereo not given),–,inactive: -8.75%
Clc1ccc(C(c2nnnn2C2CCCC2)N2CCN(Cc3ccncc3)CC2)cc1 (stereo not given),–,inactive: -1.67%
COc1ccc(CCC(=O)NNC(=O)c2cc(Cl)ccc2OC)cc1,"inconclusive: 89.1 µM [inhibitor, single point]",–
CC(C)(C)OC(=O)NCCOC(=O)c1[nH]cnc1C(=O)NCc1ccccc1,"inconclusive: 79.4 µM [inhibitor, single point]",–
COC(=O)C(Cc1c[nH]c2ccccc12)NC(=O)c1cccs1 (stereo not given),"inconclusive: 89.1 µM [inhibitor, single point]",–
Cc1ccccc1-c1cc(C(=O)NCc2cccc(Br)c2)n(CC2CC(c3cccnc3)=NO2)n1 (stereo not given),"inconclusive: 8.91 µM [inhibitor, full curve]",–
COc1ccc2c(c1)cc(C(=O)N/N=C/c1c(O)c(C(=O)O)cc3ccccc13)n2C,"inconclusive: 31.6 µM [inhibitor, full curve]",–
CNc1oc(-c2cccc3ccccc23)nc1C#N,"inconclusive: 22.4 µM [inhibitor, partial curve, poor fit]",–
